Among the data in article PMC11440836 are binding values, retold here.

Chains of the proteins cited; added tags and fusions are not shown.
UniProt Q9UBB5: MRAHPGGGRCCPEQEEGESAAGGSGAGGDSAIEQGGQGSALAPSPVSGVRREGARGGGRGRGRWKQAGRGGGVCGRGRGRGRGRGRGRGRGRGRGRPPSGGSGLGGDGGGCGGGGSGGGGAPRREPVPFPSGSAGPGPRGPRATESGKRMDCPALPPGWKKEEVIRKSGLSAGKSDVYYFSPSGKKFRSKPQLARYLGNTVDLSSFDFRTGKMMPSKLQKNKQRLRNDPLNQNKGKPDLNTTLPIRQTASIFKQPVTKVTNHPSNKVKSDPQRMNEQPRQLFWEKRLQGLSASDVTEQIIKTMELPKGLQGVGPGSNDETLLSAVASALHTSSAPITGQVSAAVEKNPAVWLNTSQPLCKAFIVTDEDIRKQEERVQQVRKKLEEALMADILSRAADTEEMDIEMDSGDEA
UniProt Q92769: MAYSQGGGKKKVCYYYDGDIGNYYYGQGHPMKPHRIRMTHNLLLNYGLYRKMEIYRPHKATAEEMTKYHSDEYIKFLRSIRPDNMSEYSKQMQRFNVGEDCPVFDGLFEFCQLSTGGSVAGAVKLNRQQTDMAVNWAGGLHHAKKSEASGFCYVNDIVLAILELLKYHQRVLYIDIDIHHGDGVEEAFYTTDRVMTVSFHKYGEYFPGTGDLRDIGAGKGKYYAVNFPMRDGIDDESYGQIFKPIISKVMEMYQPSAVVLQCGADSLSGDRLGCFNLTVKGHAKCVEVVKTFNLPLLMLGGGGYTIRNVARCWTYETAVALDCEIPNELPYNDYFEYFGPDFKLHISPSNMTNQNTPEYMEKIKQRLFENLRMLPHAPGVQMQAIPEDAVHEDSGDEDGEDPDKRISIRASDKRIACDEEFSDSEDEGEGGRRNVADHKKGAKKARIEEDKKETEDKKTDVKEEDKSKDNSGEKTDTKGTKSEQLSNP
UniProt Q13547: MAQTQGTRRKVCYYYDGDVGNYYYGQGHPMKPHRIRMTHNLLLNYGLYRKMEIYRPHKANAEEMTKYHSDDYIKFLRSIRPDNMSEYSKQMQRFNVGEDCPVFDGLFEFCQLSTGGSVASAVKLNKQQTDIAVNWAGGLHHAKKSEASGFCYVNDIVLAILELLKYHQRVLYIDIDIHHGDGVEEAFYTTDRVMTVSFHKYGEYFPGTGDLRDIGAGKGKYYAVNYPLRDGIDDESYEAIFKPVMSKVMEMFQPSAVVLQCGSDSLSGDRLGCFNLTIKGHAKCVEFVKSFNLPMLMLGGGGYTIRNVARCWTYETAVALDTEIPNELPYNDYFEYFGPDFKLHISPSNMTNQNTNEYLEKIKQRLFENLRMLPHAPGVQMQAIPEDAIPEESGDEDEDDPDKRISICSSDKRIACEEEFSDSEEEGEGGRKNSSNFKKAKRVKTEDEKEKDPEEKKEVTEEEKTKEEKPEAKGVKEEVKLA

This experiment deals with MBD2 (Methyl-CpG-binding domain 2), full length, Flag-tagged (UniProt Q9UBB5). As to the kind of experiment: co-IP; lysates of transfected 293T, TFK1 or RBE cells in IP buffer; A/G magnetic beads + antibody or Flag-coupled magnetic beads, 4 °C, 12 h; five washes; immunoblot.

These are yes or no findings as the source states them, for the method shown. Binding seen in cells or lysates may run through a third protein. Some entries that bind do so weakly or less than the wild type.

For “HDAC2 (histone deacetylase 2) (from UniProt Q92769 1-488) (enzyme)”, the binding result is “binds”.
Consider “HDAC1 (histone deacetylase 1) (from UniProt Q13547 1-482) (enzyme)”, for which the binding result is “binds”.
